Measurements reported in PubChem BioAssay AID540276 (National Center for Advancing Translational Sciences (NCATS), 2011).
Screen size: about 300,000 compounds; about 5,400 (1.8%) were called active. Inconclusive results, whose numbers are uncertain, are shown with a selection of clear calls. Calls come from the whole dose curve; tested in HEK293 cells. Potencies beside an inconclusive call are fits to weak or partial responses and may not hold up.

assay: qHTS for inhibitors of binding or entry into cells for Marburg Virus; settings: Marburg virus pseudotyped entry inhibition, cell reporter; activity change, negative = inhibition: at 37.8 µM (top of the series) unless noted
% is set by controls: 0 for no effect and ±100 for the full control effect; potency is the fitted concentration of half-maximal effect.

| Structure (SMILES) | Potency | activity change, negative = inhibition |
| --- | --- | --- |
| COc1ccc(S(=O)(=O)Cc2ccc(C(=O)N3CCN(c4cc(C)ccc4C)CC3)o2)cc1 | inactive |  |
| COc1ccc(/C=C(/NC(C)=O)C(=O)O)cc1 | inconclusive: 31.6 µM [activator, single point] |  |
| CCc1ccc(CN2CCC(n3nccc3NC(=O)Cc3ccccc3)CC2)o1 | inconclusive: 35.5 µM [inhibitor, single point] |  |
| COc1ccc2c(c1)C1(Nc3ccccc3-c3nc4ccccc4n31)C(=O)N2 (stereo not drawn) |  | inactive: -14.3% |
| O=[N+]([O-])c1cccc(/C([O-])=C(/C(=S)Nc2ccccc2)[n+]2ccccc2)c1 | inconclusive: 6.31 µM [activator, partial curve, poor fit] |  |
| COc1ccc(OC(C)C(=O)NCCC2=CCCCC2)cc1 (stereo not drawn) | inconclusive: 3.16 µM [inhibitor, single point] |  |
| Cc1ccc(S(=O)(=O)Nc2ccc3nc(-c4cccn4C)[nH]c3c2)cc1 | inconclusive: 35.5 µM [inhibitor, single point] |  |
| CC(C)CCn1nnnc1CN1CCN(c2ccc(F)cc2)CC1 |  | inactive: -15.3% [at 46.1 µM] |
| COc1cc2c(cc1NC(=S)Nc1ccccc1C)oc1ccccc12 | inconclusive: 1 µM [inhibitor, single point] |  |
| CCCCN1C2=C(C(=O)CCC2)C(c2ccc(Cl)c(Cl)c2)C2=C1c1ccccc1C2=O (stereo not drawn) | inconclusive: 4.61 µM [inhibitor, full curve, poor fit] |  |
| O=C(NCCN1C(=O)S/C(=C\c2ccccc2Cl)C1=O)C1=COCCO1 | inconclusive: 2.51 µM [inhibitor, partial curve] |  |
| COc1cc(-c2nnc(SCC(=O)NC3CCCC3)n2C)cc(OC)c1O | inconclusive: 5.62 µM [inhibitor, single point] |  |
| Cc1cc(C)n(-c2nc(-c3ccccc3)cs2)n1 |  | inactive: 4.59% [at 46.1 µM] |
| CC(=O)Oc1ccc2ccccc2c1C(NC(=O)Cc1ccccc1)c1ccccc1 (stereo not drawn) | inconclusive: 5.17 µM [inhibitor, partial curve, poor fit] |  |
| CCC(=O)Nc1ccc(S(=O)(=O)c2ccc(NC(=O)CC)cc2)cc1 |  | inactive: -7.53% |
| Cc1ccc(S(=O)(=O)Nc2cc(C)on2)cc1 |  | inactive: 3.11% [at 46.1 µM] |
| CCOC(=O)c1cccc(NC(=O)Nc2ccc3c(c2)N(C)C(=O)c2ccccc2S3)c1 | inconclusive: 35.5 µM [inhibitor, partial curve, poor fit] |  |
| COc1ccc(S(=O)(=O)Nc2ccc(F)cc2)cc1N(C)S(=O)(=O)c1ccc(Cl)cc1 | active: 20.6 µM |  |
| O=C(CCCN1CCC(O)(c2cccc(C(F)(F)F)c2)CC1)c1ccc(F)cc1 | active: 11.2 µM |  |
| CN(C(=S)Nc1ccc(Oc2ccccc2)cc1)C1CCCCC1 | inconclusive: 35.5 µM [inhibitor, single point] |  |
| O=C(Nc1ccc(Cl)cc1)c1cccc(OC(=S)N2CCOCC2)c1 | inconclusive: 11.2 µM [inhibitor, partial curve] |  |
| O=C(NCC(c1ccccc1Cl)N1CCCC1)c1ccc(N2CCCC2=O)cc1 (stereo not drawn) |  | inactive: 6.2% [at 46.1 µM] |
| CCOC(=O)Nc1cccc(C(=O)O)c1 |  | inactive: -5.55% |
| O=C(Nc1ccc(F)c(F)c1)C1CCN(S(=O)(=O)c2cccc3nonc23)CC1 |  | inactive: -2.33% [at 46.1 µM] |

Pulled one by one from the list above:

| Structure (SMILES) | Potency | activity change, negative = inhibition |
| --- | --- | --- |
| O=[N+]([O-])c1cccc(/C([O-])=C(/C(=S)Nc2ccccc2)[n+]2ccccc2)c1 | inconclusive: 6.31 µM [activator, partial curve, poor fit] |  |
| O=C(NCC(c1ccccc1Cl)N1CCCC1)c1ccc(N2CCCC2=O)cc1 (stereo not drawn) |  | inactive: 6.2% [at 46.1 µM] |
| CC(C)CCn1nnnc1CN1CCN(c2ccc(F)cc2)CC1 |  | inactive: -15.3% [at 46.1 µM] |
| Cc1ccc(S(=O)(=O)Nc2ccc3nc(-c4cccn4C)[nH]c3c2)cc1 | inconclusive: 35.5 µM [inhibitor, single point] |  |

(more compounds)

| Structure (SMILES) | Potency | activity change, negative = inhibition |
| --- | --- | --- |
| CCc1nnc(NC(=O)CSc2nnc3ncccn23)s1 | inconclusive: 0.073 µM [inhibitor, partial curve, poor fit] |  |
| COCCNC(=O)c1cc(-c2ccc(OC)c(OC)c2)on1 | inconclusive: 23.1 µM [activator, partial curve, poor fit] |  |
| CC(=O)Nc1ccc(S(=O)(=O)NCc2ccncc2)cc1 | inconclusive: 5.62 µM [activator, single point] |  |
| O=C(NCCOC(=O)c1cccs1)c1cccnc1 |  | inactive: 1.3% |
| CCSc1ncc(Cl)c(C(=O)N(Cc2ccc(C(C)(C)C)cc2)C2CCS(=O)(=O)C2)n1 (stereo not drawn) | inconclusive: 35.5 µM [inhibitor, single point] |  |
| CC(C)(C)c1cc(OC(=O)c2ccccc2F)ccc1O | inconclusive: 14.1 µM [inhibitor, partial curve, poor fit] |  |
| Cc1c(C=O)c2ccccn2c1C(=O)c1cccs1 |  | inactive: 2.42% |
| NNC(=O)C1CCCN1S(=O)(=O)c1ccc(Cl)cc1 (stereo not drawn) |  | inactive: -25.9% [at 46.1 µM] |
| CC1(c2ccc3noc(-c4ccc(F)cc4)c3c2)OCCO1 |  | inactive: -0.172% |
| COc1cc(S(=O)(=O)N2CCOCC2)ccc1NC(=O)c1cc2c(s1)CCC2 | inconclusive: 0.631 µM [inhibitor, full curve, poor fit] |  |
| COc1ccc(-c2csc(NC(=O)CSc3n[nH]c(C)n3)n2)cc1 |  | inactive: -8.75% [at 46.1 µM] |
| Cc1cc(C)cc(NC(=S)Nc2cccc3cnccc23)c1 |  | inactive: -28.8% [at 46.1 µM] |
| O=C(NCc1ccc2c(c1)OCO2)C1CCN(C(=O)Nc2ccc(Cl)cc2)CC1 |  | inactive: 24.6% |
| CC(=O)Nc1ccccc1C(=O)OCc1ccccc1F |  | inactive: 12% [at 46.1 µM] |
| O=C(CCNC(=O)c1ccc(Br)cc1)NC1CCCc2ccccc21 (stereo not drawn) | active: 2.24 µM |  |
| COc1ccc(C2(C)NC(=O)N(CC(=O)Nc3ccc(C)cc3Br)C2=O)cc1OC (stereo not drawn) |  | inactive: -14.7% [at 46.1 µM] |
| Oc1ccccc1/C=N/NC(=S)NCCc1ccccc1 | inconclusive: 35.5 µM [inhibitor, single point] |  |
| O=C1c2ccccc2C(=O)N1CCCCNc1ccccc1 | inconclusive: 0.112 µM [inhibitor, full curve, poor fit] |  |
| Cc1cc2c(c(=O)o1)[C@H](CC(C)C)C(C#N)=C(N)O2 |  | inactive: 4.52% |
| Cc1ccc(C(NC(=O)/C=C\c2ccc3c(c2)OCO3)C(=O)Nc2ccc3c(c2)OCO3)cc1 (stereo not drawn) | inconclusive: 14.1 µM [inhibitor, partial curve, poor fit] |  |
| O=c1cc(-c2ccc(F)cc2F)[nH]c2ccccc12 | inactive |  |
| OCCC1CN(CC#Cc2ccccc2)CCN1Cc1ccccc1F (stereo not drawn) |  | inactive: -7.07% [at 46.1 µM] |
| Cc1ccc(-c2ccc(CN3C(CC(C)C)C(=O)N(Cc4cn(CCC5OCCO5)nn4)CCS3(=O)=O)cc2)cc1 (stereo not drawn) | inconclusive: 25 µM [inhibitor, single point] |  |
| FC(F)(F)c1cc(NC(=S)Nc2ccc3cc4ccccc4cc3c2)cc(C(F)(F)F)c1 | inconclusive: 5.96 µM [activator, single point] |  |
